This passage reports cell count results from PubChem BioAssay AID1656 (Sanford-Burnham Center for Chemical Genomics, 2009).

The other results are listed elsewhere or left out.

This test is described as follows: inhibitors of hepatocyte lipid droplet formation, primary screen, imaging, high-throughput imaging, BODIPY stain (AID 1656).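 Note: cells counted across two imaged fields per well.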 The following applies: AML12 mouse hepatocytes, oleate lipid droplets, measured here: cell count, cytotoxicity flag, at 6.5 µM. Summed up: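 material = mouse AML12 hepatocyte cell line, fixed after treatment | also added = 100 µM oleic acid challenge | doses = compound at 6.5 µM only | schedule = overnight exposure | technique = Image-based BODIPY and DAPI two-channel analysis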
`CCCOc1ccc(C)cc1CN(CCCl)CCCl` registered a cell count of 726 cells.
Then `CN1CCC(Nc2ccc(Cl)cc2)CC1`, with 805 cells; and `COc1cc(OC)cc(C(=O)NCC2(N3CCOCC3)CCCCC2)c1`, with 694 cells.
Then `COc1cccc(C(=O)N(c2cc(C)cc(C)c2)C2CCN(C(=O)OC(C)(C)C)CC2)c1`, with 833 cells; and `CCCOc1ccc(C(=O)NCC2(N(C)C)CCCCC2)cc1`, with 826 cells; and `CC(C)(C)OC(=O)N1CCC(Nc2ccccc2)CC1`, with 702 cells.
Then `CN1CCC(Nc2ccc(F)c(Cl)c2)CC1`, with 741 cells; and `CCOc1ncccc1C(=O)NCC1(N2CCOCC2)CCCCC1`, with 782 cells; and `CN(C)c1ccc(C(=O)NCC2(N3CCCCC3)CCCCC2)cc1`, with 734 cells.
With `CCN1CCC(Nc2cccc(F)c2)CC1`, the cell count worked out at 762 cells.
Then `COc1cc(OC)cc(C(=O)NCC2(N3CCCCC3)CCCCC2)c1`, with 853 cells.
On to `CCCN1CCC(Nc2cc(OC)cc(OC)c2)CC1`, for which the cell count was 790 cells.
For the compound `c1ccc(CN2CCC(Nc3ccccc3)CC2)cc1`, the cell count worked out at 763 cells.
`CC(C)(C)OC(=O)N1CCC(N(C(=O)c2ccccc2)c2ccc(Cl)cc2)CC1` showed a cell count of 705 cells.
Consider `N#Cc1ccc(C(=O)NCC2(N3CCCCC3)CCCCC2)cc1`, for which the cell count amounted to 676 cells.
Then `O=C(OC1CN2CCC1CC2)C1c2ccccc2C=Cc2ccccc21` (stereo not drawn), with 754 cells; and `CCOC(=O)N1CCC(Nc2ccc(C)cc2)CC1`, with 808 cells.
Regarding `COc1ccc(C(=O)NCC2(N3CCOCC3)CCCCC2)cc1OC`, the cell count came out at 720 cells.
Then `COc1cc(OC)c(C(=O)NCC2(N(C)C)CCCCC2)cc1OC`, with 821 cells; and `CN(C)c1cccc(C(=O)NCC2(N3CCCCC3)CCCCC2)c1`, with 728 cells.
Then `COc1ccc(CN(CCCl)CCCl)cc1Cl`, with 670 cells; and `CC(C)c1ccc(NC2CCN(C(=O)OC(C)(C)C)CC2)cc1`, with 676 cells; and `CN1CCN(CCOC(=O)C(O)(c2ccccc2)c2ccccc2)CC1`, with 680 cells.
Then `COc1ccc(NC2CCN(C(=O)OC(C)(C)C)CC2)cc1`, with 722 cells.
As for `COc1cc(C(=O)NCC2(N3CCCCC3)CCCCC2)ccc1OC(F)F`, the cell count was 743 cells.
The compound `O=C(NCC1(N2CCOCC2)CCCCC1)c1cc(=O)[nH]c2ccccc12` showed a cell count of 791 cells.
Then `O=C(NCC1(N2CCCCC2)CCCCC1)c1cccc(C(F)(F)F)c1`, with 810 cells; and `O=C(NCC1(N2CCCCC2)CCCCC1)c1cccc([N+](=O)[O-])c1`, with 672 cells; and `CCN1CCC(Nc2ccc(Cl)cc2)CC1`, with 781 cells.
With `O=C(NCC1(N2CCCCC2)CCCCC1)c1ccc(OC(F)F)cc1`, the cell count is 778 cells.
For the compound `Cc1ccc(OCC(C)C)c(CN(CCCl)CCCl)c1`, the cell count was 738 cells.
Then `CCOC(=O)N1CCC(Nc2cccc(C)c2)CC1`, with 827 cells.
Then `CCOC(=O)N1CCC(Nc2ccc(F)cc2)CC1`, with 744 cells; and `O=C(NCC1(N2CCCCC2)CCCCC1)c1ccc(F)cc1`, with 622 cells.
Then `CCOc1ccc(C)cc1CN(CCCl)CCCl`, with 639 cells; and `CCOC(=O)N1CCC(Nc2ccc(OC)cc2)CC1`, with 704 cells.
In the case of `N#CC1(Nc2ccccc2)CCN(Cc2ccccc2)CC1`, the cell count turned out to be 684 cells.
Turning to `O=C(NCC1(N2CCOCC2)CCCCC1)c1cc2ccccc2o1`, the cell count came to 705 cells.
Take `CSc1ccccc1C(=O)NCC1(N2CCCCC2)CCCCC1`: the cell count is 737 cells.
`O=C(NCC1(N2CCCCC2)CCCCC1)c1ccc(=O)[nH]c1` displayed a cell count of 839 cells.
For the compound `CC(C)(C)OC(=O)N1CCC(N(C(=O)c2ccccc2)c2ccc(F)cc2)CC1`, the cell count came to 843 cells.
Then `COc1ccc(C(=O)NCC2(N3CCCCC3)CCCCC2)c(OC)c1OC`, with 740 cells; and `COc1ccc(C(=O)NCC2(N3CCCCC3)CCCCC2)cc1`, with 821 cells.
